{
  "source": "patent US20160354411A1",
  "about": "“OLIVAMINE-INDUCED IMPROVEMENT IN ENDOTHELIAL CELLS VIABILITY AND FUNCTION” (priority 2015, published 2016)",
  "system": "human microvascular endothelial cells",
  "assay": "in vitro model of wound healing, time for 50% wound to heal",
  "format": "cell-based",
  "settings": "compared to untreated or to single ingredients; absence and presence of glucose",
  "text": "The time for wounds to heal by 50% under the various treatment conditions was quantified.",
  "note": "For at least one compound, name, drawing or mass did not settle the structure.",
  "data": [
    {"compound": "C/C=C1/[C@H](O[C@@H]2O[C@H](CO)[C@@H](O)[C@H](O)[C@H]2O)OC=C(C(=O)OC)[C@H]1CC(=O)OCCc1ccc(O)c(O)c1", "note": "[Oleuropein]", "values": [
      {"measurement": "effect on time and extent of wound healing (in words)", "value": "does not improve wound healing"}
    ]}
  ]
}
